Assay [1] deals with T1, 人信号素3A蛋白 (human) (UniProt Q14563).
T1 sequence (looked up): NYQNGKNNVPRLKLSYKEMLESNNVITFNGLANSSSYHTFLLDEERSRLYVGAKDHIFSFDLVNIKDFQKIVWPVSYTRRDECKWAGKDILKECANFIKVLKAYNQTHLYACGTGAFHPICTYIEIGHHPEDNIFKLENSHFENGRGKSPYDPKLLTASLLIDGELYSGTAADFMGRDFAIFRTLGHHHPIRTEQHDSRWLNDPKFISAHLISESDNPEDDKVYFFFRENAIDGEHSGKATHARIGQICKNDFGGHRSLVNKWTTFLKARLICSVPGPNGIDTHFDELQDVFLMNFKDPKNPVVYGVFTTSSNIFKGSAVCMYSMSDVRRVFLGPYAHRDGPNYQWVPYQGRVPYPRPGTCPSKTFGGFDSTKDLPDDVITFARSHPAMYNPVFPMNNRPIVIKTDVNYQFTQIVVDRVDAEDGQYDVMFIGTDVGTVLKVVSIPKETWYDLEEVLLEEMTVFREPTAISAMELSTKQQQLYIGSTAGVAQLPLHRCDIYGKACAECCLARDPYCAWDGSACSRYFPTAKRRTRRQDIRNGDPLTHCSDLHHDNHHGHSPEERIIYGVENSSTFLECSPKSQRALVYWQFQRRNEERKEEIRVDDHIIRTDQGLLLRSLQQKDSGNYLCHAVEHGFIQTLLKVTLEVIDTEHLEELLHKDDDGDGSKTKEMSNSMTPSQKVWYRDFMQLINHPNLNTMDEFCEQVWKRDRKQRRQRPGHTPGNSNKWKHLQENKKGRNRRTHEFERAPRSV
Description: ELISA, IgG at 500 nM and 50 nM, BSA as negative control. For orientation: In an ELISA, binding on a coated surface is turned into a signal by an enzyme label.

Assay [2] has as its target T2, 小鼠信号素3A蛋白 (mouse) (UniProt O08665).
T2 sequence (looked up): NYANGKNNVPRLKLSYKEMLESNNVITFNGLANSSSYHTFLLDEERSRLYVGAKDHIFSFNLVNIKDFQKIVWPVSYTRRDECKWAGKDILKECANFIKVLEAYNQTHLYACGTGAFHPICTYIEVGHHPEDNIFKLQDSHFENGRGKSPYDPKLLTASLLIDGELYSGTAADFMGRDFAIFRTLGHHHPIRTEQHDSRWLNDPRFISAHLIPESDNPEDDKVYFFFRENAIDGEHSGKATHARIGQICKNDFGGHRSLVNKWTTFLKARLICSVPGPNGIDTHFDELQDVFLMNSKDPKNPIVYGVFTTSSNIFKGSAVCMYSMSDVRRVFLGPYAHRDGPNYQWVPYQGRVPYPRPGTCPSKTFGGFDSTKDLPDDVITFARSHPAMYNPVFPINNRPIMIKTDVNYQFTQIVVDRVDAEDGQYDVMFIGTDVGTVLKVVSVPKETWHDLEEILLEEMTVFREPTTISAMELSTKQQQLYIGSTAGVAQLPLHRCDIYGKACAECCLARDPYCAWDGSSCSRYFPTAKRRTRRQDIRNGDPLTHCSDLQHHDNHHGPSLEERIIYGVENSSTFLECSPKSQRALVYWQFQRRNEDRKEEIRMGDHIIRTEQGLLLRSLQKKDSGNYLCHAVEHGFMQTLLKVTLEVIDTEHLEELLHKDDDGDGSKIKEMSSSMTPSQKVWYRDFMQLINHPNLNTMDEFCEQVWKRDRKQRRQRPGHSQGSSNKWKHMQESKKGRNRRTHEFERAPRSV
The assay is described as above.

The target in assay [3] is T1, 人信号素3A蛋白 (human). Description: SPR, Biacore. (In general: Surface plasmon resonance follows binding to a sensor surface in real time, without labels.)
For assay [4], the target named is T2, 小鼠信号素3A蛋白 (mouse). Description: SPR, Biacore.

These are yes or no findings as the source states them, for the method shown. Some entries that bind do so weakly or less than the wild type.

B1: 抗信号素3A IgG C10 (antibody, V domains shown)
VH: EVQLLESGGGLVQPGGSLRLSCAASGFTFSDYAMSWVRQAPGKGLEWVSGIYYDDSSQYYADSVEGRFTISRDNSKNTLYLQMNSLRAEDTAVYYCARYLGLFDYWGQGTLVTVSS
VL: QSVLTQPPSASGTPGQRVTISCSGSSSNIGNNSVNWYQQLPGTAPKLLIYSDSQRPSGVPDRFSGSKSGTSASLAISGLRSEDEADYYCGSWDYSLSAYVFGGGTKLTVL
For the molecule B1, the binding entry in assay [1] and in assay [2] was “binds” in each case.

B2: 抗信号素3A IgG F11 (antibody, V domains shown)
VH: EVQLLESGGGLVQTGGSLRLSCAASGFTFSDYAMSWVRQAPGKGLEWVSWIYYDSGSKYYADSVKGRFTISRDNSKNTLYLQMNSLRAEDTAVYYCAKLNGDFDYWGQGTLVTVSS
VL: QSVLTQPPSASGTPGQRVTISCSGSSSNIGNNDVSWYQQLPGTAPKLLIYADSHRPSGVPDRFSGSKSGTSASLAISGLRSEDEADYYCGAWDSSLSGYVFGGGTKLTVL
As for B2, the binding entry in assay [3], in assay [4], in assay [1] and in assay [2] was “binds” throughout.

B3: 抗信号素3A IgG A08 (antibody, V domains shown)
VH: EVQLLESGGGLVQPGGSLRLSCAASGFTFSDYAMSWVRQAPGKGLEWVSGIYYDDSSQYYADSVKGRFTISRDNSKNTLYLQMNSLRAEDTAVYYCAKNLGRFDYWGQGTLVTVSS
VL: QSVLTQPPSASGTPGQRVTISCTGSSSNIGSNAVTWYQQLPGTAPKLLIYDDNHRPSGVPDRFSGSKSGTSASLAISGLRSEDEADYYCGAWDDSLSAYVFGGGTKLTVL
Consider B3, for which the binding entry in assay [1] and in assay [2] was “binds” throughout.

Source of the values: patent CN108290942A.
